System: resistant isolates
Method: The antibacterial activity of each of the compounds against the bacterial strains E. faceium (ATCC 49624), S. epidermidis (ATCC 12228), S. aureus (ATCC 29213), E. faecalis (CL 4877) and E. faecalis (ATCC 292121) was tested. Each of the compounds was screened in a 96 will agar array format.

For `CN[C@H](CC(C)C)C(=O)N[C@H]1C(=O)N[C@@H](CC(N)=O)C(=O)N[C@H]2C(=O)N[C@H]3C(=O)N[C@H](C(=O)N[C@@H](C(=O)O)c4cc(O)cc(O)c4-c4cc3ccc4O)[C@H](O)c3ccc(c(Cl)c3)Oc3cc2cc(c3O[C@@H]2O[C@H](CO)[C@@H](O)[C@H](O)[C@H]2O[C@@H]2C[C@@](C)(NCc3ccc(-c4ccc(Cl)cc4)cc3)[C@@H](O)[C@@H](C)O2)Oc2ccc(cc2Cl)[C@H]1O` [p-chlorobiphenylvancomycin, p-chlorobiphenyl vancomycin], the “MIC against resistant isolates” value was “approximately 6 ug/ml”.

— patent US6518243B1, “Desleucyl glycopeptide antibiotics and methods of making same” (Trustees of Princeton University, priority 1999, dated 2003)
